These are yes or no findings as the source states them, for the method shown. In cells and extracts the contact can be indirect. Some results given as binding are weak or reduced against the parent protein; the word gives no strength.
Molecular target: enolase 1 (Eno1) (mouse (endogenous in EO771)) (UniProt P17182)
Assay: co-IP; antibody for Hsp90ab1 or Eno1 (2 µg) on protein A sepharose, incubated overnight with 600 µL EO771 cell lysate, washed three times with PBS, Western blot; normal IgG as negative control

Sequences of proteins named here, by UniProt entry; tags and fusion partners are left off.
UniProt P17182: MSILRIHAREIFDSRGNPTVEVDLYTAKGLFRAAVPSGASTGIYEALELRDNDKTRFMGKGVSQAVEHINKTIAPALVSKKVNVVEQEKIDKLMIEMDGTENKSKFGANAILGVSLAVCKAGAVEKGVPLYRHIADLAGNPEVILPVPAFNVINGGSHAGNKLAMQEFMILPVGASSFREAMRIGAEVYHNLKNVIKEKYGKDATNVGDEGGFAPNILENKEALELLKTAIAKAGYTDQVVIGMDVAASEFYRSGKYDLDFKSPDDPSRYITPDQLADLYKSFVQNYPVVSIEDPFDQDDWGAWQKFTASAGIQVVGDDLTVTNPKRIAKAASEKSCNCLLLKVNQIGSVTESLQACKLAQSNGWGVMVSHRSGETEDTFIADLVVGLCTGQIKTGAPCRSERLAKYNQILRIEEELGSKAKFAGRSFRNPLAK

- binding: binds
B1: CD44, a cell-adhesion receptor (receptor, UniProt P15379 23-778)
chain: QIDLNVTCRYAGVFHVEKNGRYSISRTEAADLCQAFNSTLPTMDQMKLALSKGFETCRYGFIEGNVVIPRIHPNAICAANHTGVYILVTSNTSHYDTYCFNASAPPEEDCTSVTDLPNSFDGPVTITIVNRDGTRYSKKGEYRTHQEDIDASNIIDDDVSSGSTIEKSTPEGYILHTYLPTEQPTGDQDDSFFIRSTLATIASTVHSKSHAAAQKQNNWIWSWFGNSQSTTQTQEPTTSATTALMTTPETPPKRQEAQNWFSWLFQPSESKSHLHTTTKMPGTESNTNPTGWEPNEENEDETDTYPSFSGSGIDDDEDFISSTIATTPRVSARTEDNQDWTQWKPNHSNPEVLLQTTTRMADIDRISTSAHGENWTPEPQPPFNNHEYQDEEETPHATSTTPNSTAEAAATQQETWFQNGWQGKNPPTPSEDSHVTEGTTASAHNNHPSQRITTQSQEDVSWTDFFDPISHPMGQGHQTESKDTDSSHSTTLQPTAAPNTHLVEDLNRTGPLSVTTPQSHSQNFSTLHGEPEEDENYPTTSILPSSTKSSAKDARRGGSLPTDTTTSVEGYTFQYPDTMENGTLFPVTPAKTEVFGETEVTLATDSNVNVDGSLPGDRDSSKDSRGSSRTVTHGSELAGHSSANQDSGVTTTSGPMRRPQIPEWLIILASLLALALILAVCIAVNSRRRCGQKKKLVINGGNGTVEDRKPSELNGEASKSQEMVHLVNKEPSETPDQCMTADETRNLQSVDMKIGV

From PMC8615769
